# Among all 320,000 compounds or so, about 2,100 (0.66%) were called active. The shares of active, inactive and inconclusive entries below differ from those in the screen. Calls come from the whole dose curve; as a rule, active = well fitted inhibition curve with a large enough effect in the signal ratio, with a control signal flat (not every such curve was filed as active); inconclusive = small, poorly fitted or top-dose-only effect, or effect the other way, or a change in a side signal; inactive = flat fitted curve, though single readings scatter; the % refers to the signal ratio. Potencies beside an inconclusive call are fits to weak or partial responses and may not hold up.
# Assay: qHTS Assay for Lipid Storage Modulators in Drosophila S3 Cells
# Settings: BODIPY lipid droplet fluorescence, 18-24 h, cells fed with added oleic acid; lipid storage change, negative = inhibition: at 46.1 µM (top of the series) unless noted
# Procedure, shortened: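 Drosophila S3 cells got compounds at several concentrations plus oleic acid (400 uM solution). Laser-scanning cytometry with 488 nm excitation read lipid droplets at 500-530 nm and cells at 575-640 nm. Percent activity was relative to 20 uM Triacsin C.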
# % is set by controls: 0 for no effect and ±100 for the full control effect; potency is the fitted concentration of half-maximal effect.
SMILES,"lipid storage change, negative = inhibition",Potency
C=CCOc1ccc(CN(C)CC(O)COc2cccc3ccccc23)cc1 (stereo unspecified),inconclusive: 28.3%,
COc1ccc(-c2cccc(C3CC=CC4C3C(=O)N(Cc3ccccc3)C4c3ccc(C(F)(F)F)cc3)c2)cc1 (stereo unspecified),inconclusive: 14.4%,
CCCC1(c2ccccc2)NC(=O)N(CC(=O)Nc2cc(C)ccc2OC)C1=O (stereo unspecified),inconclusive: -100%,
O=C(NC1CCN(S(=O)(=O)c2ccc(F)cc2)CC1)c1ccco1,inconclusive: -42.8%,
CCOc1ccc(S(=O)(=O)Nc2nc3ccccc3nc2-n2ccc(=NC(=O)c3cccs3)cc2)cc1,inconclusive: 14.9%,
CCOC(=O)C1=C(CNCc2ccccc2Cl)NC(=O)NC1c1ccc2c(c1)OCO2 (stereo unspecified),,"inconclusive: 9.2 µM [activator, partial curve]"
O=[N+]([O-])/C(=C\Nc1ccc(F)cc1F)S(=O)(=O)c1ccccc1,inactive,
CC(=O)c1cc2c(cc1NC(=O)c1ccc(C)cc1)OCO2,inconclusive: 12.2%,
N#Cc1c(-c2ccccc2)nc(N2CCOCC2)[nH]c1=O,inconclusive: 2.82%,
CC(NC(=O)c1c(O)c2ccccc2[nH]c1=O)c1ccccc1 (stereo unspecified),inconclusive: 54.6%,
CCOC(=O)/C(C#N)=N/Nc1ccc(S(=O)(=O)N2CCc3ccccc32)cc1,,"inconclusive: 29.1 µM [falling, single point]"
CC(Sc1nnc(-c2cccnc2)n1-c1ccccc1)C(=O)NCc1ccc2c(c1)OCO2 (stereo unspecified),,"inconclusive: 2.59 µM [activator, partial curve]"
CC1CCN(c2c(NCC3CCC(C(=O)NCCc4ccccc4)CC3)c(=O)c2=O)CC1 (stereo unspecified),inconclusive: -9.74%,
COc1ccc(Nc2nc3nonc3nc2N2CCCCC2)cc1,,"inconclusive: 0.731 µM [activator, partial curve, poor fit]"
Cc1ccc(S(=O)(=O)N2CCOCC2)cc1NC(=O)COC(=O)c1cc(=O)[nH]c2ccccc12,inconclusive: -24.5%,
CCOC(=O)C1CCCCN1Cc1cccc(Oc2ccccc2)c1 (stereo unspecified),inactive,
COc1ccc(N2CCN(C(=O)c3cn(CC4CCCCC4)nn3)CC2)cc1,,"inconclusive: 6.51 µM [activator, single point]"
COc1cccc(C(=O)N2CCN(C(=O)C3CCCO3)CC2)c1 (stereo unspecified),inconclusive: -7.72%,
O=C(COC(=O)CCN=C1NS(=O)(=O)c2ccccc21)NNC(=O)c1ccc(Cl)cc1,inconclusive: 11.4%,
CCOc1cc(/C=N/n2cnnc2)ccc1OS(=O)(=O)c1ccc(C)cc1,,"inconclusive: 32.6 µM [falling, single point]"
C=CCN(C(=O)CCC(=O)O)C1CC(=O)N(c2ccc(OC)cc2)C1=O (stereo unspecified),inconclusive: -49.9%,
CCN1C(=NCc2ccc(OC)cc2)N[C@@H](CCc2ccccc2)[C@H](C(=O)NCc2ccc(OC)cc2)[C@H]1C,inconclusive: -10.1%,
COc1ccc(CC(=O)NCCc2ccc(OC)c(OC)c2)cc1,,"inconclusive: 0.0206 µM [falling, full curve, poor fit]"

SMILES,"lipid storage change, negative = inhibition",Potency
COc1ccc(C)cc1NC(=O)C(C)N(c1ccc(C)cc1)S(C)(=O)=O (stereo unspecified),inconclusive: -27.6%,
Cc1cccc(NC(=O)CSc2nnc(C3CC3)n2CC2CCCO2)c1C (stereo unspecified),inconclusive: -54.9%,
CCCCN1C[C@H](Cc2ccccc2)[C@@H](CC(=O)Nc2ccccc2)C1=O,,"inconclusive: 29.1 µM [falling, single point]"
Cc1cc2[nH]c(=O)c(=O)[nH]c2cc1S(=O)(=O)N1CCN(c2ccccc2)CC1,inconclusive: 23.5%,
COc1ccccc1CCNC(=O)C(=O)NCC1OCCCN1S(=O)(=O)c1ccc(F)cc1C (stereo unspecified),inconclusive: -19.1%,
COc1ccc(C2C3C=CCC(c4cccc(-c5ccc(C)cc5)c4)C3C(=O)N2Cc2ccccc2)cc1Cl (stereo unspecified),inconclusive: -10.6%,
COc1ccc(C2/C=C\CN(C(=O)Nc3ccccc3-c3ccccc3)CC(=O)N2Cc2ccc(F)cc2)cc1 (stereo unspecified),inconclusive: -4.18%,
COc1cc(CNCCCCO)ccc1OCc1ccccc1F,inconclusive: 14.1% [at 9.22 µM],
Cc1cc(C)c(C)c(S(=O)(=O)N2CCN(c3ncnc4ccccc34)CC2)c1C,,"inconclusive: 6.51 µM [falling, partial curve]"
Cc1ccc(S(=O)(=O)c2c(CO)c(-c3ccccc3)nn2C)cc1,inconclusive: 19.7%,
CC(C)N(CCn1c(SCC(=O)Nc2cccnc2Cl)nc2ccccc2c1=O)C(C)C,,"inconclusive: 5.17 µM [activator, partial curve]"
Cc1ccc(C2(C)NC(=O)N(CC(=O)Nc3cc(S(=O)(=O)N4CCCCC4)ccc3OC(C)C)C2=O)cc1 (stereo unspecified),inconclusive: 40.6%,
CC(=O)N(Cc1ccco1)C1(C(=O)NC2CCCC2)CCCCC1,,active: 14.6 µM
CCOc1cc(N2CCOCC2)c(OCC)cc1NC(=O)Cc1cn2ccsc2n1,,"inconclusive: 18.4 µM [activator, partial curve]"
COc1ccc(F)cc1S(=O)(=O)NC(Cc1ccccc1)C(N)=O (stereo unspecified),inconclusive: -2.21%,
CCN1C(=O)/C(=C\N2CCCCCC2)SC1=S,inconclusive: 53.2%,
CSc1n[nH]c(NC(=O)c2c(-c3c(Cl)cccc3Cl)noc2C)n1,inconclusive: -16%,
COc1ccc(-c2csc(NC(=O)CN3C(=O)C4CC=CCC4C3=O)n2)cc1 (stereo unspecified),inconclusive: -16.8%,
CN(Cc1ccccc1)C(=O)CCS(=O)(=O)c1cc2c(cc1Cl)NC(=O)CO2,inconclusive: -7.93%,
O=C(Nc1ccncc1)Nc1cccc(Cl)c1Cl,,"inconclusive: 18.4 µM [activator, single point]"
CCn1c2ccccc2c2cc(NC(=O)c3ccco3)ccc21,,"inconclusive: 0.731 µM [activator, partial curve]"
Cc1oc2ccc(NS(=O)(=O)c3ccccc3)cc2c1C(=O)Nc1ccccc1,,"inconclusive: 23.1 µM [activator, partial curve, poor fit]"
OC(COc1ccccc1)CSc1ncn[nH]1 (stereo unspecified),inconclusive: -1.88%,

# Gathered by group: those above containing two or more sulfur atoms.
SMILES,"lipid storage change, negative = inhibition",Potency
CCOc1ccc(S(=O)(=O)Nc2nc3ccccc3nc2-n2ccc(=NC(=O)c3cccs3)cc2)cc1,inconclusive: 14.9%,
CCN1C(=O)/C(=C\N2CCCCCC2)SC1=S,inconclusive: 53.2%,
